# Results: the supplement of paper PMC12009310
# Where a name gives a salt, the structure may show the parent alone. ± gives the standard deviation of the averaged measurements. This is one part of the list. Baselines shift from plate to plate; read single values as rough.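 Cells from a mouse kidney inner medullary collecting duct line received siRNA against the ciliary gene Rpgrip1l or a non-targeting control. Primary scores are two-run means relative to batch controls. Follow-up hits increased cilia by 2 or more over their matched control; compounds reducing cell number by at least 2 were dropped. The cells are a mouse kidney inner medullary collecting duct line, silenced either for the ciliary gene Rpgrip1l or with a non-targeting control siRNA.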
# How the values were obtained:
# mIMCD3 [1] = experiment: robust z score of cell number vs plate controls; higher = more cells (less cytotoxic); settings: 10 µM, 48 h
# mIMCD3 [2] = experiment: robust z cell number difference from vehicle control (robust z score difference); higher = more cells; settings: 10 µM, 48 h
# mIMCD3 [3] = experiment: robust z score of cilia incidence (% cells with single cilium) vs plate controls; higher = more ciliated cells; settings: 10 µM; 48 h; siRNA: siScr
# mIMCD3 [4] = experiment: robust z cilia incidence difference from vehicle control (robust z score difference); higher = more ciliated cells; settings: 10 µM; 48 h; siRNA: siScr
# mIMCD3 [5] = experiment: robust z cilia incidence difference from vehicle control (robust z score difference); higher = more ciliated cells (rescue); settings: 10 µM; 48 h; siRNA: siRpgrip1l
# mIMCD3 [6] = experiment: robust z score of cilia incidence (% cells with single cilium) vs plate controls; higher = more ciliated cells (rescue of cilia loss); settings: 10 µM; 48 h; siRNA: siRpgrip1l
SMILES,robust z score of cell number (mIMCD3 [1]; siRNA: siRpgrip1l),robust z score of cell number (mIMCD3 [1]; siRNA: siScr),robust z cell number difference (mIMCD3 [2]; siRNA: siRpgrip1l),robust z cell number difference (mIMCD3 [2]; siRNA: siScr),robust z score of cilia incidence (mIMCD3 [3]),robust z cilia incidence difference (mIMCD3 [4]),robust z cilia incidence difference (mIMCD3 [5]),robust z score of cilia incidence (mIMCD3 [6])
CCOc1cncc(/C=C/CCNC)c1 [TC 2559 difumarate],-2.47 ± 2.5,-2.01 ± 4.8,1.06,-3.46 ± 5.7,-6.11 ± 9.3,-2.27 ± 12,1.81,-5.91 ± 1.1
O=C(O)c1nn(Cc2ccc(Cl)cc2Cl)c2ccccc12 [Lonidamine],-28.9 ± 35,-10.2 ± 0.32,–,–,-7.7 ± 4.4,–,–,-245 ± 190
N[C@@H](Cn1oc(=O)[nH]c1=O)C(=O)O [L-Quisqualic acid],3.9 ± 4.3,-7.27 ± 12,–,–,0.0286 ± 3.1,–,–,-7.66 ± 8
Cn1c2c(c3ccccc31)CCNCC2,-0.17 ± 0.72,-2.06 ± 4.4,–,–,1.25 ± 0.41,–,–,-7.58 ± 5.2
c1ccc(CCCCN2CCC(c3ccccc3)CC2)cc1 [4-PPBP maleate],-65.5 ± 44,-100 ± 89,–,–,-17.6 ± 2.8,–,–,-52 ± 5.5
CN1[C@@H]2C[C@@H](OC(=O)[C@H](CO)c3ccccc3)C[C@H]1[C@@H]1O[C@@H]12 [Scopolamine hydrobromide],1.97 ± 9.6,0.214 ± 1.5,-0.109,0.501 ± 1.1,-5.13 ± 9.7,4.26 ± 2.7,-0.412,-7.92 ± 0.54
NC(N)=Nc1ccc2[nH]c3c(c2c1)C[C@@]1(O)[C@H]2Cc4ccc(O)c5c4[C@@]1(CCN2CC1CC1)[C@H]3O5 [GNTI dihydrochloride],-24.7 ± 34,2.35 ± 0.65,–,–,2.69 ± 2.2,–,–,-7.46 ± 1.5
N[C@H](C(=O)O)c1cc(O)no1 [Ibotenic acid],1.01 ± 3.4,3.44 ± 2.5,–,–,4.4 ± 1.8,–,–,-7.89 ± 3.2
CC(N)Cc1c[nH]c2ccc(OCc3cccs3)cc12 (configuration not stated) [BW 723C86 hydrochloride],-16.8 ± 9,1.28 ± 2.2,–,–,-1.87 ± 1.7,–,–,-23.5 ± 4
CN1CC[C@@H]2CN3CCc4cccc(c43)[C@@H]2C1 [SDZ SER 082 fumarate],-25.6 ± 11,-2.72 ± 0.61,–,–,-6.26 ± 4.6,–,–,-11.7 ± 2.4
Cc1[nH]c2ccc(O)cc2c1CCN [2-Methyl-5-hydroxytryptamine hydrochloride],-4.41 ± 5.9,-1.98 ± 5.3,2.83,-0.56 ± 0.21,0.396 ± 2.2,-3.64 ± 6.7,4.16,-3.29 ± 12
CCC(Oc1ccc(Cl)cc1)C(=O)OC1C[C@H]2CC[C@@H](C1)N2C (some centres not stated) [SM-21 maleate],-48.9 ± 16,-37.1 ± 8.3,–,–,-45 ± 5.4,–,–,-40.4 ± 1
O=C(N[C@H]1CN2CCC1CC2)c1ccc(Cl)cc1,-4.68 ± 3.6,0.818 ± 0.57,–,–,0.133 ± 0.66,–,–,-10.2 ± 6.2
C=CCN1C[C@H](C)N([C@H](c2ccc(C(=O)N(CC)CC)cc2)c2cccc(O)c2)C[C@H]1C,-1.26 ± 0.46,-2.97 ± 4,-15.6,-8.7 ± 5.9,1.53 ± 0.74,1.34 ± 3.2,-20.8,-93.4 ± 53
